Results taken from PubChem BioAssay AID686996 (Broad Institute, 2013).
The campaign covered roughly 350,000 compounds. About 1,900 (0.54%) were called active. The shares of active, inactive and inconclusive entries below differ from those in the screen.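 Rule for the calls: active = mean inhibition across replicates at least about 35%, with every replicate also reaching that limit (limit read from the data); inconclusive = only one of the two criteria met; inactive = neither criterion met.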

By UniProt entry, the sequences of proteins in these tests, tags left out. Residues count along the entry.
UniProt P55212, 194-293 limits assumed: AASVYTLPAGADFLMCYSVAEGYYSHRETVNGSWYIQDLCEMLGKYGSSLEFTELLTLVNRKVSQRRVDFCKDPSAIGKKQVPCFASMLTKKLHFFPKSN
UniProt P55212, 24-179 limits assumed: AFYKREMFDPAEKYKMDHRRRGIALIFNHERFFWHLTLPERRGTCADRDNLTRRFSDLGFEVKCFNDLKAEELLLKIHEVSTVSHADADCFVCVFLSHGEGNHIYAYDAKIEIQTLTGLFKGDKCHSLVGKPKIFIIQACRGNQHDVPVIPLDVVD

biological target: Caspase-6 (Homo sapiens) (UniProt P55212); assay: human caspase-6 inhibitors, primary screen, biochemical, VEID-R110 fluorescence, single point, set 2 (AID 686996); conditions: purified caspase-6, Z-VEID-R110 cleavage fluorescence; at 12.5 µM; active compounds read high;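 note: 0% = median of neutral control wells and 100% = no fluorescence left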

SMILES	inhibition
CCOc1ccc(Nc2nc(N3CCOCC3)nc(N3CCOCC3)n2)cc1	active: 41.4%
C[C@H](CO)N1C[C@H](C)[C@H](CN(C)Cc2ccncc2)Oc2ncc(-c3cccc(F)c3)cc2C1=O	inconclusive: -2.21%
C[C@@H]1CN([C@@H](C)CO)C(=O)c2cc(C#C[C@@H](C)O)cnc2O[C@H]1CN(C)C(=O)CN(C)C	inconclusive: -5.2%
Cc1ccc(C)c(N2CCN(C(=O)CCS(=O)(=O)c3ccc4c(c3)NC(=O)CO4)CC2)c1	active: 70.6%
C[C@@H]1CN([C@@H](C)CO)S(=O)(=O)c2ccc(-c3cccc(C(=O)N(C)C)c3)cc2O[C@H]1CN(C)C(=O)Nc1ccccc1	inconclusive: 43.1%
COc1ccccc1NC(=O)N1CCCCN2[C@H](CO)[C@H](c3ccc(-c4ccccc4)cc3)[C@H]2C1	inactive: -3.26%
